Test results reported in patent publication US20100267934A1.
These are yes or no findings as the source states them, for the method shown. Some binding calls cover weakened binding; strength is not graded here.

How the values were obtained:
Fel d 1 [1] = molecular target: Fel d 1 (UniProt P30438); assay: homologous cross-linking of 125I-Fel d 1 to Sepharose-immobilized Fel d 1, mouse plasma
Fel d 1 [2] = molecular target: Fel d 1 (UniProt P30438); assay: antigen binding test (protein G Sepharose, 125I-Fel d 1) on Superdex200 fractions of plasma of a mouse dosed with the IgG4 mix
Bet v 1 [3] = molecular target: T1, Bet v 1 (UniProt P15494); assay: heterologous cross-linking assay on Superdex200 fractions of mouse plasma
T1 sequence (125I label in the antigen binding and cross-linking tests, looked up): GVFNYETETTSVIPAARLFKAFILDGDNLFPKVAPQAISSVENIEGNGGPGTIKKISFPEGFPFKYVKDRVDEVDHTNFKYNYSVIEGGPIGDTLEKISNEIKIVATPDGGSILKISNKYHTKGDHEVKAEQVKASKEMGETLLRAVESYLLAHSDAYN

Fel d 1 [4] = molecular target: Fel d 1 (UniProt P30438); assay: as above
Bet v 1 [5] = molecular target: T1, Bet v 1; assay: heterologous cross-linking assay (Fel d 1-Bet v 1) after 24 h with reducing agents
Fel d 1 [6] = molecular target: Fel d 1 (UniProt P30438); assay: as above
Bet v 1 [7] = molecular target: T1, Bet v 1; assay: bispecific activity to Bet v 1 and Fel d 1 in plasma of SCID mice, cross-linking assay
Fel d 1 [8] = molecular target: Fel d 1 (UniProt P30438); assay: as above
Bet v 1 [9] = molecular target: T1, Bet v 1; assay: heterologous cross-linking assay on Superdex200 fractions after 72 h with erythrocytes
Fel d 1 [10] = molecular target: Fel d 1 (UniProt P30438); assay: as above
Bet v 1 [11] = molecular target: T1, Bet v 1; assay: heterologous cross-linking assay on Superdex200 fractions of the IgG4 mix incubated with 0.5 mM GSH
Fel d 1 [12] = molecular target: Fel d 1 (UniProt P30438); assay: as above
Bet v 1 [13] = molecular target: T1, Bet v 1; assay: heterologous cross-linking assay (Sepharose-coupled Fel d 1, 125I-Bet v 1), plasma of nu/nu Balb/c mice
Fel d 1 [14] = molecular target: Fel d 1 (UniProt P30438); assay: as above
Bet v 1 [15] = molecular target: T1, Bet v 1; assay: heterologous cross-linking assay (Sepharose-coupled recombinant Fel d 1, 125I-Bet v 1) after 24 h with blood components
Fel d 1 [16] = molecular target: Fel d 1 (UniProt P30438); assay: as above
Bet v 1 [17] = molecular target: T1, Bet v 1; assay: heterologous cross-linking assay (Sepharose-coupled cat extract, 125I-Bet v 1) on Superdex200 fractions, erythrocyte lysate
Fel d 1 [18] = molecular target: Fel d 1 (UniProt P30438); assay: as above
Bet v 1 [19] = molecular target: T1, Bet v 1; assay: heterologous cross-linking assay (Sepharose-coupled recombinant Fel d 1, 125I-Bet v 1) after 48 h with MNC, erythrocytes or platelets
Fel d 1 [20] = molecular target: Fel d 1 (UniProt P30438); assay: as above
Bet v 1 [21] = molecular target: T1, Bet v 1; assay: antigen binding test (protein G Sepharose, 125I-Bet v 1) on Superdex200 fractions of the IgG4 mix incubated with erythrocyte lysate

Measured: binding

B1: Feld1-IgG1 (antibody, V domains shown)
VH: QVQLQQPGAELVKPGASVKLSCKASGYSFTSYWMHWLKQRPGQGLEWIGEINPNNGRTYYNEKFKTKATLTVDKSSSTAYMQLNSLTSEDSAVYYCARRLTMVESFAYWGQGTLVTFSA
VL: DIVMTQSPSSLTVTAGEKVTMSCKSSQSLLNSGNQKNYLTWYQQKPGQPPKLLIYWASTRESGVPDRFTGSGSGTDFSLTISSVQAEDLAIYYCQNDYSYPFTFGSGTKLEIK
binds: Fel d 1 [1]

B2: Feld1-IgG4 (antibody, V domains shown)
VH: B1 VH
VL: B1 VL
binds: Fel d 1 [2]

B3: bispecific IgG4 (Bet v 1-Fel d 1) formed by Fab arm exchange of IgG4-Betv1 and IgG4-Feld1 (bispecific antibody, V domains shown)
VH 1: EVQLQQSGAELVKPGASVKLSCTASGFNIKDTYIHWVKQRPEQGLEWVGRIDPATGNTRYDPKFQGKATITADTSSNTAYLQLSSLTSEDTAVYYCASFRPGYALDYWGQGTSVTVSS
VL 1: DIVMTQSHKFMSTSVGDRVSFTCKASQDVFTAVAWYQQKPGQSPKLLIYWASTRRTGVPDRFTGSGSGTDYTLTISSVQAEDLALYYCQQHFSTPPTFGGGTKLEIK
VH 2: B1 VH
VL 2: B1 VL
not listed: Fel d 1 [1] | Fel d 1 [2] | Bet v 1 [21]
binds: all other assays above

B4: Betv1-IgG4 (antibody, V domains shown)
VH: B3 VH 1
VL: B3 VL 1
binds: Bet v 1 [21]
